{"source": "patent US10488418B2", "about": "“Fluorescence assay for intestinal permeability” (THE REGENTS OF THE UNIVERSITY OF CALIFORNIA, priority 2014, dated 2019)", "key": {"[1]": {"test": "Viologen based fluorescence assay for sugars in urine with 4,4′oBBV and HPTS", "conditions": "with 4,4′oBBV, analyte concentration in original human urine sample; for LLOD: signal 3 SD above mean noise; for LLOQ: signal 10 SD above mean noise", "source_text": "A Marquardt 4-parameter curve fit was used. […] The g in urine/g ingested×100 yielded % ingested. Lactulose measurements were confirmed by enzyme assay.\nStatistics: The lower limit of detection (LLOD) was defined as the analyte concentration in the urine sample at which fluorescence intensity in the assay was 3 standard deviations above the mean baseline fluorescence. Similarly, the lower limit of quantification (LLOQ) was defined as 10 standard deviations above the mean baseline fluorescence. Coefficient of variation percent (CV %) was determined by averaging sets of samples each measured in 4 wells. Results are given as mean±SEM."}, "[2]": {"test": "Viologen based fluorescence assay for sugars in urine with 4,4′oMBV and HPTS", "conditions": "with 4,4′oMBV, analyte concentration in original human urine sample"}}, "note": "Several values for one entry are separate records, joined by “and”; a condition that tells them apart may be missing. Identical values can stand only once.", "data": [{"smiles": "OC[C@H]1O[C@@H](O[C@@H]2[C@@H](CO)OC(O)(CO)[C@H]2O)[C@H](O)[C@@H](O)[C@H]1O", "note": "(mixture of isomers) [Lactulose, lactulose]", "values": [{"measurement": "LLOD", "setting": "[1]", "result": 90, "unit": "µM"}, {"measurement": "LLOQ", "setting": "[1]", "result": 364, "unit": "µM"}, {"measurement": "LLOD", "setting": "[2]; signal 3 SD above mean noise", "result": 108, "unit": "µM"}, {"measurement": "LLOQ", "setting": "[2]; signal 10 SD above mean noise", "result": 704, "unit": "µM"}]}, {"smiles": "OC[C@@H](O)[C@@H](O)[C@H](O)[C@H](O)CO", "note": "[Mannitol, mannitol]", "values": [{"measurement": "LLOD", "setting": "[1]", "result": "416 µM and 354 µM"}, {"measurement": "LLOQ", "setting": "[1]", "result": "860 µM and 1250 µM"}]}]}
